The record followed here is patent US20260226152A1.

Results are given in words; binding and its absence hold for the method and conditions named.

The assay addresses Cynomolgus monkey IL-23 (cynomolgus monkey). Kind of assay: SPR (Biacore), antibody captured on Protein A/G, cytokine as analyte, 25 C. Background: In SPR one partner is held on a chip, and binding of the other changes the refractive index at the surface.

B1: IL-18 control 1 (antibody, V domains shown)
VH: QVQLVQSGAEVKKPGASVKVSCKVSGEISTGYYFHWVRQAPGKGLEWMGRIDPEDDSTKYAERFKDRVTMTEDTSTDTAYMELSSLRSEDTAVYYCTTWRIYRDSSGRPFYVMDAWGQGTLVTVSS
VL: DIQMTQSPSSVSASVGDRVTITCLASEDIYTYLTWYQQKPGKAPKLLIYGANKLQDGVPSRFSGSGSGTDYTLTISSLQPEDFATYYCLQGSKFPLTFGQGTKLEIK
Consider B1, for which the binding result is “no binding (tested: 0.04-25 nM analyte)”.
